Values from PubChem BioAssay AID504771 (Drosophila RNAi Screening Center, 2011)
The reagents shown are a selection, not the whole library. 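All genes were primary candidates; inactive means validation failed, not no effect; aggregate scores behind calls are not deposited.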 Reagents against one gene are numbered here. A plus sign joins genes that one reagent is predicted to hit.

Purpose: 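Genes whose knock-down alters aggregation of mutant huntingtin with 46 glutamines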 (follow-up of hits)
System: Drosophila S2 cells with copper-inducible mutant huntingtin exon 1 (46 glutamines)-eGFP
Knock-down reagent: long dsRNA against Drosophila genes, 250 ng dsRNA per well
Duration: 3 days of knock-down, then 2 days of copper induction before fixing
Challenge: copper sulfate at 400 µM to switch on Htt-Q46-eGFP expression
Read-out: 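Automated image analysis of GFP-tagged aggregates per well: number, size and intensity against plate mean and SD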
Call rule: 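Primary candidate if any aggregate measure lay more than 2 SD from the plate mean; active only if it then passed checks for off-target effects, reproducibility, independent dsRNAs and a promoter counter-screen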
Meaning of the calls: active = confirmed modifier; inactive = primary candidate not confirmed

Depletion of eIF3i (eukaryotic translation initiation factor 3 subunit i) gave: aggregation phenotype knock-down lowers aggregates; active. RpS11 (Ribosomal protein S11) gave aggregation phenotype knock-down lowers aggregates; inactive. Depletion of CG14082 resulted in: aggregation phenotype knock-down raises aggregates; inactive. For CG32318 + Klp61F + Psf1, the entry reads aggregation phenotype knock-down lowers aggregates; inactive. After knock-down of Rpn7 (Regulatory particle non-ATPase 7), the record shows aggregation phenotype knock-down lowers aggregates; inactive. Silencing of RpS6 (Ribosomal protein S6) gave: aggregation phenotype knock-down lowers aggregates; inactive.

GATAe gave aggregation phenotype knock-down raises aggregates; inactive. After knock-down of U2A, the record shows aggregation phenotype knock-down lowers aggregates; inactive.

Quoted from the listing for reference:
CG32318 + Klp61F + Psf1 → aggregation phenotype: knock-down lowers aggregates; Outcome: inactive
Rpn7 (Regulatory particle non-ATPase 7) → aggregation phenotype: knock-down lowers aggregates; Outcome: inactive
RpS6 (Ribosomal protein S6) → aggregation phenotype: knock-down lowers aggregates; Outcome: inactive

Additional records follow:
Against lic (licorne), the values are active. With knock-down of bonsai, the record shows aggregation phenotype knock-down lowers aggregates; inactive. After knock-down of Sym (Symplekin), the record shows aggregation phenotype knock-down lowers aggregates; inactive. CG32733 (retired record) + CG32797 scored aggregation phenotype knock-down lowers aggregates; inactive. ras (raspberry) showed aggregation phenotype knock-down lowers aggregates; inactive. Depletion of sxc (super sex combs) resulted in: aggregation phenotype knock-down lowers aggregates; inactive.

Sse (Separase) scored aggregation phenotype knock-down lowers aggregates; inactive. Against chb (chromosome bows) the deposit lists aggregation phenotype knock-down lowers aggregates; inactive. After knock-down of AGO1 (Argonaute-1) the results were aggregation phenotype knock-down lowers aggregates; inactive. After knock-down of MED11 (Mediator complex subunit 11) #1, the screen gave aggregation phenotype knock-down lowers aggregates; inactive. Knock-down of MED11 (Mediator complex subunit 11) #2 came out at: aggregation phenotype knock-down lowers aggregates; inactive.
